The campaign covered roughly 320,000 compounds. About 2,100 (0.66%) were called active. The inconclusive results got no clear call from the source; some entries with a clear call stand among them for comparison. Calls come from the whole dose curve; as a rule, active = well fitted inhibition curve with a large enough effect in the signal ratio, with a control signal flat (not every such curve was filed as active); inconclusive = small, poorly fitted or top-dose-only effect, or effect the other way, or a change in a side signal; inactive = flat fitted curve, though single readings scatter; the % refers to the signal ratio. Where the call is inconclusive, the potency comes from a doubtful curve fit.
Experiment: qHTS Assay for Lipid Storage Modulators in Drosophila S3 Cells
Settings: BODIPY lipid droplet fluorescence, 18-24 h, cells fed with added oleic acid; lipid storage change, negative = inhibition: at 46.1 µM (top of the series) unless noted
Summary of the method: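 Laser-scanning cytometry quantifies lipid droplet accumulation (500–530 nm total intensity; droplet/cell object ratio) in oleic acid-fed (400 uM added) Drosophila S3 cells treated with a concentration series. 20 uM Triacsin C defined 100% inhibition.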
% is set by controls: 0 for no effect and ±100 for the full control effect; potency is the fitted concentration of half-maximal effect.

Potency, inconclusive:
O=C(NCC1CCN(Cc2ccccc2F)CC1)C1CCCN(c2ncnc3c2nc2n3CCCCC2)C1 (centres undefined) 29.1 µM [activator, single point], CC(C)C(=O)C1=Cc2cccc([N+](=O)[O-])c2OC1N1CCOCC1 (centres undefined) 6.51 µM [falling, single point], COc1ccc(S(=O)(=O)N2CCOCC2)cc1NC(=O)COc1ccccc1OC 20.6 µM [falling, single point], CNc1c(NS(=O)(=O)c2ccc(C3CCCCC3)cc2)c(=O)oc2ccccc12 29.1 µM [activator, single point], NS(=O)(=O)c1ccc(CCNC(=O)c2ccccc2OCc2ccc(F)cc2)cc1 2.59 µM [falling, partial curve, poor fit], CCCCCCSc1nc2c(c(=O)[nH]c(=O)n2C)n1C 2.31 µM [activator, single point], O=C(Nc1ccccc1Cc1ccccc1)c1ccccc1F 1.84 µM [activator, partial curve, poor fit], COc1cc(C(=O)NCc2nnc(SCC(=O)NCc3ccco3)o2)cc(OC)c1OC 13 µM [activator, partial curve], CCc1ccc2oc(=O)cc(CN3CCOCC3)c2c1 6.51 µM [activator, single point], O=C(c1cc(-c2ccc(Br)cc2)n[nH]1)N1CCN(C(=O)c2ccccc2Br)CC1 1.16 µM [activator, partial curve], O=C(Nc1ccccc1)c1ccc2nc(-c3ccco3)c(-c3ccco3)nc2c1 1.3 µM [activator, full curve], CCOC(=O)/C(C#N)=C\c1ccc(N2CCN(C/C=C/c3ccccc3)CC2)cc1 29.1 µM [falling, single point], COc1ccc(S(=O)(=O)N(CC(=O)Nc2ccccc2C(=O)N2CCOCC2)c2ccc(F)cc2)cc1 1.84 µM [falling, partial curve], O=C1c2ccccc2S(=O)(=O)N1CC1CC(c2ccccc2)=NO1 (centres undefined) 0.326 µM [activator, partial curve], Cc1ccc(CC(=O)NCC(O)c2ccccc2)cc1 (centres undefined) 1.16 µM [activator, full curve], CSCC[C@H](NC(=O)C1CCN(S(=O)(=O)c2ccccc2)CC1)C(=O)NC1CC1 6.51 µM [activator, single point], O=C(Nc1ccc2ccccc2c1)N1CCN(c2ncccc2C(F)(F)F)CC1 0.651 µM [falling, full curve, poor fit], O=C(CNS(=O)(=O)c1ccccc1)NCc1ccco1 29.1 µM [activator, single point], Cc1ccc(S(=O)(=O)Nc2cc(C)c(O)c(Sc3n[nH]c(C)n3)c2)cc1 29.1 µM [activator, single point], CC(C)c1onc(C(=O)N2CCN(c3ccc(F)cc3)CC2)c1[N+](=O)[O-] 2.59 µM [activator, partial curve, poor fit]

Potency, active:
N#CC(C(=O)O)=C1CCCC1 23.1 µM

Lipid storage change, negative = inhibition, inconclusive:
Cc1nc(-c2ccc(-n3nncc3-c3ccco3)cc2)cs1 11.5%, COc1ccc(S(=O)(=O)NCC2CCCN(C(=O)CSC)C2)cc1 (centres undefined) 18.6%, O=C(CSc1ncc(-c2ccc(F)cc2)[nH]1)Nc1cccc(O)c1 -2.15%, O=C(c1ccco1)N1CCC(c2nc3c(nnn3Cc3ccc(F)cc3)c(=O)[nH]2)CC1 78.1%, Cn1c(=O)c(=O)n(C)c2cc(S(=O)(=O)N3CCN(c4cccc(C(F)(F)F)c4)CC3)ccc21 -59.5%, COc1ccc(S(=O)(=O)NN(C)c2ncc(C(F)(F)F)cc2Cl)cc1 30.6%, CN(CCNC(=O)c1cn(C)c2ccc(S(=O)(=O)N(C)C)cc2c1=O)CCc1ccccc1 -2.95%, Cc1c(CN2CCC(n3nccc3NC(=O)C3CC3)CC2)[nH]c2ccccc12 11.7%, CC1(C(=O)OCC(=O)NCCNC(=O)COC(=O)C2(C)CC2(Cl)Cl)CC1(Cl)Cl (centres undefined) -46.5%, CNCc1ccccc1Sc1ccc(OC)c(OC)c1 1.64%, Cc1cc(=O)nc2c3ccccc3n(CC(=O)Nc3ccccc3Br)n12 -12.2%, COc1ccc(CNC(=O)CSCc2c(F)cccc2Cl)cc1 30.6%, COc1cc(/C(C#N)=C/c2cccc3ccccc23)c([N+](=O)[O-])cc1OC 26.2%, O=C(NCc1cccnc1)c1ccc(NC(=O)c2ccc([N+](=O)[O-])cc2)cc1 -62%, O=C(CCc1ccc(S(=O)(=O)NCc2ccccc2)cc1)N1CCN(Cc2ccc3c(c2)OCO3)CC1 12.3%, CCn1c(C)cs/c1=N\C(=S)Nc1ccccc1C 29%, Cc1ccc(S(=O)(=O)NCC(=O)N2CCC(C)CC2)cc1 1.22%, Cc1ccc(Sc2c(O)c3ccccc3n(C)c2=O)cc1 2.97%, CSc1ccccc1C(=O)NC1CCSc2ccccc21 (centres undefined) 75.3%, CCOc1ncccc1C(=O)Nc1cccc(-c2nc3cccnc3s2)c1 -29.6%, Cc1ccc([N+](=O)[O-])cc1NC(=O)Nc1ccc(S(N)(=O)=O)cc1 -9.52%, Oc1ccccc1-c1csc(-c2ccccc2)n1 6.22%, O=c1/c(=C\c2cc([N+](=O)[O-])cc([N+](=O)[O-])c2O)sc2nc3ccccc3n12 -19.5%, CC(=O)c1cn(CCOc2ccc(F)cc2)c2ccccc12 -60.5%, CC(C)C[C@@H](CO)N1CCN(CCc2ccccc2)CCC1=O -56%, Cc1ccc(CCN2C(=O)c3ccc(C(=O)O)cc3C2=O)cc1 16.2%, COc1ccc(OC)c(Nc2nc3ccc(C)cc3n3cnnc23)c1 -13.1%, Cc1c(NS(=O)(=O)N2CCCCC2)c(=O)n(-c2ccccc2)n1C -3.06%, CCCCS(=O)(=O)N1CN(S(=O)(=O)CCCC)C2NC(=O)NC21 (centres undefined) -20.8%, CC1CC(C)CN(C(=S)Nc2ccc3nc4n(c(=O)c3c2)CCCCC4)C1 (centres undefined) -5.43%, O=C(CSc1nnc(NC(=O)c2ccc(F)cc2)s1)NC1CCCC1 68.2%, Cc1ccc(C)c(NC(=O)CN2C(=O)CC(C)S(=O)(=O)c3ccccc32)c1 (centres undefined) 147%, O=Cc1ccc(OCC(=O)NCC2CCCO2)cc1 (centres undefined) -12.6%, O=C(NCc1ccc(Cl)cc1)c1cc2ccccn2n1 -1.3%, COc1ccc(OC)c(NC(=O)c2ccc(S(=O)(=O)N3CCN(C)CC3)cc2)c1 20.9%, COc1ccc(/C=C\c2nc(=O)c3ccccc3o2)cc1 1.19%, N#Cc1ccccc1S(=O)(=O)N1CCN(C(=O)c2cc3c(s2)CCC3)CC1, COc1cccc(C(=O)NCc2ccc3c(c2)cc(C)n3C)c1 30.7%, O=C(CSc1c2c(nc3cc(Cl)ccc13)CCCC2)NCCCN1CCOCC1 -9.04%, CN1C(C)(C)c2ccccc2OS1(=O)=O -26.8%, Cc1cc(C(=O)OCC(=O)Nc2ccc(F)c(F)c2F)c(C)o1 77.9%, Cc1cc2oc(=O)cc(Cn3ccnc3)c2cc1Cl 9.4%, CCN(CC)c1ccc(NC(=O)COC(=O)CCC(=O)c2cccs2)cc1 -1.96%, CC(C)c1ccc(/C=N/NC(=O)c2c(Cl)cnn2C)cc1 29.2%, O=C(CCc1[nH]c2ccccc2c1Sc1ccccc1)N(CCO)CCO -15.8%, COc1ccc(NC(=O)c2cc(-c3ccccc3)nc3c2c(C)nn3-c2ccccc2)c(OC)c1 24.4%, O=C(c1ccco1)N1CCN(c2cc(C(F)(F)F)nc3ncnn23)CC1 -3.14%, COc1ccc(CNC(=O)CCSCc2ccc(C)cc2)cc1 4.12%, O=C(O)Cc1ccc(NC(=O)COc2ccc3ccccc3c2)cc1 14.8%, COc1ccc(OCC(O)CN2CCCCC2)cc1 (centres undefined) 12.5% [at 9.22 µM], CCNC(=S)N/N=C/c1cn(Cc2ccc(F)cc2)c2ccccc12 20.5%, COc1ccc(CN=Nc2cc(C)nc(NS(=O)(=O)c3ccccc3Cl)n2)cc1 46.3%, Cc1noc(C)c1S(=O)(=O)Nc1ccc(C(=O)NCCc2ccccc2)cc1 5.63%, CN1C(=S)N(c2ccccc2)C(=O)/C1=C/c1cccs1 27.7%, CC1CN(c2oc(COc3ccc(Cl)cc3Cl)nc2C#N)CC(C)O1 (centres undefined) -13.3%

Lipid storage change, negative = inhibition, inactive:
Cc1c(N=C/C=C/c2ccccc2)cnn1C -0.162%, Cc1cc(=O)n2nc(N3CCCC(C(=O)N4CCN(C)CC4)C3)sc2n1 (centres undefined) 2.59%, Cc1ccc(-c2nnn(CC(=O)N(Cc3ccco3)C(C(=O)NC(C)(C)C)c3cccs3)n2)o1 (centres undefined) -15.4%

Reference: PubChem BioAssay AID2685 (National Center for Advancing Translational Sciences (NCATS), 2010)
